Source: PubChem BioAssay AID1487 (National Center for Advancing Translational Sciences (NCATS), 2009)
Some of the results follow. The main result of the screen is listed elsewhere. These columns were measured beside it and carry no call. Compounds called inactive in the main read-out are mostly missing here. Potencies come from curve fits of mixed quality, noted in brackets.

Test: qHTS Assay for Modulators of Lamin A Splicing
Conditions: HeLa LMNA splicing GFP/RFP minigene ratio, 48 h
Method in brief: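 S3 HeLa cells stably expressing lamin A-EGFP splicing minigene plus DsRed2, 600 cells/well, 48 h compound exposure at 37C. Laser-scanning cytometry; analysed as GFP (500-530 nm)/RFP (575-640 nm) total intensity ratio; 0.5% DMSO vehicle.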

[1] = measured here: GFP splicing reporter channel
[2] = measured here: RFP viability control channel

SMILES | AC50 [1] | AC50 [2]
O=C(Nc1nnc(-c2ccccc2Cl)o1)c1cc2cc([N+](=O)[O-])ccc2s1 | 35.5 µM [rising, single point] | 35.5 µM [rising, single point]
Cc1ccc(-c2nn(-c3ccccc3)cc2/C=N/NC(=O)c2ccc(Br)o2)cc1 |  | 7.94 µM [falling, partial curve, poor fit]
O=C(N/N=C/C1CC=CCC1)c1ccc(Cl)cc1O (stereo not drawn) |  | 35.5 µM [rising, single point]
O=C(NN=C(Cc1ccccc1)Cc1ccccc1)c1ccccc1O | 0.01 µM [rising, partial curve] | 
Cn1c(CO)cnc1SCc1ccc(F)cc1 | 12.6 µM [falling, single point] | 
Cc1c(NCc2cc(Cl)cc(Cl)c2O)c(=O)n(-c2ccccc2)n1C | 17.8 µM [rising, single point] | 12.6 µM [rising, single point]
Cc1nc(NCc2ccccn2)c2ccccc2n1 |  | 28.2 µM [rising, single point]
O=c1c2ccccc2nc(/C=C/c2cccc([N+](=O)[O-])c2)n1CCO |  | 14.1 µM [rising, partial curve, poor fit]
CCC(Sc1nnc(-c2ccc(OC)cc2)c(-c2ccc(OC)cc2)n1)C(=O)NC1CCCCC1 (stereo not drawn) |  | 35.5 µM [rising, single point]
Cc1ccc(/C(N)=N/OC(=O)N2CCOCC2)cc1 | 12.6 µM [falling, single point] | 25.1 µM [falling, single point]
Cc1ccc(S(=O)(=O)NCCC(c2ccc(F)cc2)c2ccco2)cc1 (stereo not drawn) |  | 35.5 µM [rising, single point]
CCC1CCCCN1C(=S)NC(=O)c1ccc([N+](=O)[O-])cc1 (stereo not drawn) |  | 14.1 µM [rising, single point]
COc1ccc(N2CC(NC(=O)c3ccc(S(=O)(=O)N4CCCC4)cc3)CC2=O)cc1 (stereo not drawn) |  | 0.0501 µM [falling, full curve]
COc1cccc(N2CC(NC(=O)/C=C\c3ccc4c(c3)OCO4)CC2=O)c1 (stereo not drawn) | 2.24 µM [rising, full curve, poor fit] | 
O=C(CCCn1c(=S)[nH]c2cc3c(cc2c1=O)OCO3)N1CCN(c2ccc(Cl)cc2)CC1 | 2.82 µM [rising, full curve, poor fit] | 7.94 µM [rising, partial curve]
COc1ccccc1NC(=O)CCSc1ccc(C)cc1 | 28.2 µM [falling, partial curve, poor fit] | 35.5 µM [falling, single point]
CC1(C)CC(NC(=S)Nc2ccc([N+](=O)[O-])cc2)CC(C)(C)N1 | 0.794 µM [falling, full curve] | 0.501 µM [falling, full curve, poor fit]
O=c1cc(N2CCN(c3ccccc3)CC2)[nH]c(=O)n1-c1ccccc1 |  | 0.0126 µM [falling, full curve]
COc1ccccc1Nc1cc(C(=O)NCCCN(C)c2ccccc2)c2ccccc2n1 |  | 35.5 µM [rising, single point]
Cc1nc2cc(N3CCCCC3)c(NC(=O)c3ccncc3)cc2c(=O)n1Cc1ccccc1 | 17.8 µM [rising, single point] | 
NC(=O)C1CCCN(C(=S)Nc2ccccc2)C1 (stereo not drawn) |  | 2.24 µM [falling, partial curve]
CCOC(=O)C1=C(N)n2c(s/c(=C\c3cccs3)c2=O)=C(C(=O)OCC)C1c1cccs1 (stereo not drawn) |  | 7.08 µM [rising, partial curve]
COc1ccccc1NC(=O)Cn1nnc(-c2ccccc2NS(=O)(=O)c2ccccc2)n1 |  | 1.41 µM [rising, partial curve, poor fit]
CCn1c(SCC(=O)c2ccc(C)cc2)nnc1-c1ccncc1 |  | 0.224 µM [falling, full curve]
CCNc1nc(CN2CCCCC2)nc2scc(-c3ccccc3)c12 |  | 20 µM [rising, partial curve, poor fit]
COc1ccc(CN2C(=O)NC3(CCCCCC3)C2=O)cc1F | 22.4 µM [rising, single point] | 22.4 µM [rising, single point]
Cc1n[nH]c(C)c1S(=O)(=O)N1CCCC(C(=O)N2CCc3ccccc32)C1 (stereo not drawn) | 20 µM [rising, single point] | 
COC(=O)CNc1nc(-c2ccccc2F)nc2ccccc12 | 25.1 µM [falling, single point] | 35.5 µM [falling, single point]
CCn1c(SCC(=O)Nc2ccc3c(c2)oc2ccccc23)nnc1-c1ccc(N)cc1 | 14.1 µM [rising, single point] | 10 µM [rising, partial curve]

3 structures already listed, arranged by SMILES length, largest number first:
SMILES | AC50 [1] | AC50 [2]
COc1ccccc1Nc1cc(C(=O)NCCCN(C)c2ccccc2)c2ccccc2n1 |  | 35.5 µM [rising, single point]
O=c1cc(N2CCN(c3ccccc3)CC2)[nH]c(=O)n1-c1ccccc1 |  | 0.0126 µM [falling, full curve]
O=C(N/N=C/C1CC=CCC1)c1ccc(Cl)cc1O (stereo not drawn) |  | 35.5 µM [rising, single point]
